Results of single-concentration screens

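Assay of Toxoplasma gondii numbers, read through their beta-galactosidase reporter with a colour substrate. Compounds at 50 µM. Higher reads as fewer parasites (inferred from which compounds were picked for retests). About 18,000 compounds were tested under these conditions; 0.94% (about 170) showed 50% or more at least once.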

Values are the deposited “Percent Effect”, in %.
The controls that fix the scale are not given in the record; negative values are as filed.
Compounds were drawn at random from those tested, without regard to their results.

compound,Percent Effect
CC(C)C[C@H](N)c1nnc2ccccn12,-38.27%
COC(=O)c1ccc(Cn2ccnn2)c(F)c1,-2.003%
CC(C)NC(=O)N(C)Cc1cccc(C(N)=O)c1,-4.841%
Cn1c(=O)[nH]c(=O)c2cccnc21,-5.257%
CNCC(C)(O)c1ccccc1 (stereo unspecified),-12.67%
Cc1nnc(CN)o1,-4.689%
COCCC1(CO)CCCN(C2CCOCC2)C1 (stereo unspecified),4.044%
NC1CCN(c2ccccc2OC(F)F)C1 (stereo unspecified),-4.1%
CCCC(=O)NC1CC(=O)N(c2cccc(OC)c2)C1 (stereo unspecified),-2.955%
CC(=O)N1CCC(NC(=O)c2ccc(C#N)cc2)CC1,-0.04362%
COc1ccc(C(=O)N(C)Cc2ncc[nH]2)cc1O,-2.255%
CCN(CC)CCS(=O)(=O)c1ccccc1,5.805%
OC1CCN(CCn2cccn2)CC1,-0.6774%
CN(C)c1ncccc1CNS(=O)(=O)c1cnn(C)c1,-3.7%
CN(CCO)c1ccncc1,-8.509%
CCCN1CCCN(C(=O)CCS(C)(=O)=O)CC1,1.158%
CCCN(CCO)C(=O)C(C)NC(=O)c1ccoc1 (stereo unspecified),-3.154%
COCCN1C(=O)N[C@H]2CNCC[C@H]21,26.32%
COc1ccc(C#N)cc1CN1CCNC(=O)CC1,1.008%
CN1CCCC(CCC(=O)NCCc2cnccn2)C1 (stereo unspecified),12.83%
CCNS(=O)(=O)C1CCN(Cc2c(F)cccc2F)C1 (stereo unspecified),8.917%
C[C@@H](NC(=O)Nc1nccn(C)c1=O)c1ccccc1,-10.47%
N#CC1(N)CCOC1 (stereo unspecified),4.573%
COc1ccccc1C(N)c1noc(C)n1 (stereo unspecified),-10.27%
NC1CCOc2ccccc21 (stereo unspecified),8.406%
Cc1ccc(C(C)NC(=O)CN2CCOCC2)nc1 (stereo unspecified),-12.38%
Cc1ccc(CN(C)C(=O)CNC(=O)c2ccoc2)o1,-18.17%
COCCOCC(=O)NC(C)C(=O)N1CCSCC1 (stereo unspecified),15.94%
CNc1nc(SCC(N)=O)nc(N2CCOCC2)n1,5.936%
O=C(CCNC(=O)c1ccoc1)Nc1cccnc1,-1.721%
COCc1noc(-c2ccc(C#N)cc2)n1,35.97%
c1cn(C2CC2)c(CN2CCN(C3CCNC3)CC2)n1 (stereo unspecified),-5.191%
COCCCNC(=O)NC(=O)c1ccccc1,1.155%
CC(=O)NC1CCN(CC(=O)Nc2ccccc2)CC1,-2.438%
CC(C)c1nc(C2CNCCO2)no1 (stereo unspecified),-7.679%
COCC(=O)NC1CCc2ccccc21 (stereo unspecified),-4.858%
O=C(CN1CCC(O)CC1)N1CCCCCCC1,0.6272%
COCCNCCNC(=O)c1csc2ccccc12,2.007%
O=S(=O)(c1cccc2ncccc12)N1CCCC1,-5.304%
COCCN(C)CCCNC(=O)c1cnc(C)cn1,-6.468%
Cc1noc(C2CCCN(Cc3ccccn3)C2)n1 (stereo unspecified),2.094%
CCC(COC)NC(=O)Nc1nnc2ccccn12 (stereo unspecified),0.1083%
c1cc(CC2CCNC2)ccn1 (stereo unspecified),-7.195%
O=C1CCNc2ncccc2N1,-9.404%
NCCN1CCN(c2ncccn2)CC1,15.01%

3 of the entries, repeated:

compound,Percent Effect
Cn1c(=O)[nH]c(=O)c2cccnc21,-5.257%
NC1CCN(c2ccccc2OC(F)F)C1 (stereo unspecified),-4.1%
COC(=O)c1ccc(Cn2ccnn2)c(F)c1,-2.003%

From ChEMBL document CHEMBL3988442, “University of Dundee, Small-Polar-MMV Screening Library” (2021).